Assay results reported in patent US20090074885A1, “Reversible Hydrophobic Modification of Drugs for Improved Delivery to Cells” (Roche Madison Inc., priority 2003, published 2009).
Some entries share one result that the patent states for a list of compounds. For at least one compound, name, drawing or mass did not settle the structure.

Columns and labels:
[1] = tested on: SK-OV-3 (human ovarian carcinoma) cells; test: In vitro cellular uptake by fluorescence microscopy, SK-OV-3; format: cell-based; conditions: SK-OV-3, FIG. 5A
Method: In Vitro cellular uptake of PI, RRH-PI compounds, and IV evaluated by fluorescence measurements. […] Adherent cells were plated at 2.5×10^5 cells/well on 6-well plates 24 h prior to testing. The growth media was removed from individual wells and the drug/prodrug was immediately added to the well with the mixing chamber. […] After 30 sec the drug solution was removed (aspirated) and 2 ml complete media was added to the cells. Experiments conducted with prodrug that was hydrolyzed prior to application to the cells followed a similar protocol, however the combined solution obtained after passing through the mixing chamber was collected and allowed to sit at ambient temperature for 5 min prior to application on the cells. […] Fluorescent microscopy studies were conducted with a three laser LSM 510 confocal microscope, an Axiovert S100 fluorescent microscope, or an Axioplan2 fluorescent microscope (all Zeiss) equipped with filter sets for the rhodamine fluorescence channel (λex=BP 450/12, λem=LP 590 nm filter set) and the fluorescein fluorescent channel (λex=BP 546/90, λem=LP 515 nm filter set). […] Imaging was conducted on an Axioplan2 fluorescent microscope (Zeiss) and the same fields were imaged with phase contrast illumination, in the rhodamine fluorescence channel (λex=BP 450/12, λem=LP 590 nm filter set), and in the fluorescein fluorescent channel (λex=BP 546/90, λem=LP 515 nm filter set). […]

[2] = tested on: SK-OV-3 peritoneal tumors; test: Direct application / IP injection in mouse model of disseminated peritoneal ovarian cancer; format: in vivo, nude mice; conditions: direct application or IP injection, 10-60 min
Method: BDMODS-PI and C12PMMA-PI show enhanced drug uptake by surface tissue and microtumors following IP and intraperitoneal perfusion chemotherapy (IPPC) application in a mouse tumor model. For establishment of the cancer model, 2×10^6 SK-OV-3 cells were injected IP into nude mice. The mice were examined at two weeks following cell inoculation, or at the first manifestation of ascites (about 4-5 wks). Tissue samples were fixed in 10% NBF, routinely processed, stained with H&E stain, and subjected to histopathological analysis. […] At 4-5 weeks after SK-OV-3 cell inoculation, maximum tumor size increased to 5-7 mm with the bulk of cancer development present as about 0.1 to about 1 mm microtumors (FIG. 9). At 5 wks most peritoneal surfaces were affected by growing cancer cells, coating both the visceral and parietal peritoneum, e.g. liver, pancreas, and diaphragm. […]
Two weeks following cell inoculation, the abdominal cavity was opened and the drug mixture was directly applied on the duodenum and ovary/uterus/fallopian tubes (220 μL of drug-OS/ITG over 30 sec). […] Cellular uptake of the prodrug was stronger at the surface of the metastases, but also readily detectable in the middle of the small tumors (tumor size about 0.5 to about 1 mm; FIG. 7-8). […]

Which results are given for `CCCCCCCCCCCCNC(=O)CCC(=CCC(=O)O)C(=O)Nc1ccc2c(c1)c(-c1ccccc1)[n+](CCC[N+](C)(CC)CC)c1cc(NC(=O)C(=CCC(=O)O)CCC(=O)NCCCCCCCCCCCC)ccc21.[I-].[I-]` [III, 3,8-bis-[2-(2 carboxyethylidene)-4-(dodecarbamoyl)-1-oxo-butylamine] 5-(3,3-diethyl-3-methylammoniumpropyl) 6-phenyl phenanthridinium diiodide]?
cells stained [1]: 60-80%; depth of tumor targeting from the tumor surface [2]: up to 500 μm
